Measured values as given in patent US11020494B2, “Animal models for nonalcoholic fatty liver disease” (CROWN BIOSCIENCE INC. (TAICANG), priority 2017, dated 2021).
Entries after “also recorded” stand apart in the source; their conditions may differ. At least one structure is not confirmed: it was looked up by name or label, or the drawing left a doubt.

Key:
FATZO mice fed WDF [1] = test: OCA treatment (15 weeks) of FATZO mice fed WDF: body weight, blood chemistry, liver weight and liver triglyceride; assay type: in vivo, mouse; details: OCA 30 mg/kg, QD
FATZO mice fed WDF [2] = test: OCA treatment of FATZO mice fed WDF: liver histology, NASH scoring; assay type: in vivo, mouse; details: 15 weeks
[3] = test system: ob/ob mice fed with AMLN diet; details: 8 weeks of treatment; cited from earlier work
[4] = 15 weeks, compared to vehicle controls
[5] = after 15 weeks, compared to vehicle controls
[6] = from 8 weeks on WDF for 15 weeks
[7] = as early as 4 weeks after treatment, vs own pretreatment baseline

## CC[C@H]1[C@@H](O)[C@@H]2[C@H](CC[C@]3(C)[C@@H]([C@H](C)CCC(=O)O)CC[C@@H]23)[C@@]2(C)CC[C@@H](O)C[C@@H]12 [OCA, obeticholic acid]
FATZO mice fed WDF [1]; [4]
  blood LDL: significantly lower
  blood total cholesterol: significantly lower
FATZO mice fed WDF [1]; [5]
  hepatic TG levels: decreased significantly
  relative liver weight: decreased significantly
FATZO mice fed WDF [1]; [6]
  blood TG levels: no impact
  body weight: no impact
FATZO mice fed WDF [1]; [7]
  blood ALT levels: dramatically lower; also recorded: significantly brought down
  blood AST levels: dramatically lower; also recorded: significantly brought down
FATZO mice fed WDF [2]; OCA 30 mg/kg, QD
  NAS score: tended to improve; also recorded: overall reduction
  fibrosis score, change: not obvious
  hepatic ballooning (numbers of foci, score): significant alleviation; also recorded: improved
  lobular inflammation score, change: not obvious
  steatosis score, change: not obvious
FATZO mice fed WDF [2]; OCA, WDF fed FATZO mice
  numbers in animals with absence of fibrosis: increased
[3]
  impacts on plasma liver enzymes: minimal
